Reference: patent US20210322508A1, “PEPTIDES AND COMPOSITIONS FOR TARGETED TREATMENT AND IMAGING” (SIGNABLOK, INC., priority 2018, published 2021)
Residues, ends and D or L forms follow the SMILES beside them.

Test system: native lipoproteins
Test: Ultracentrifugation of fluorescently labeled peptides with mouse serum
Format: binding
Settings: rho B-labeled peptide, whole mouse serum, density 1.21 g/mL

Row | Compound | interaction with native lipoproteins
1 | CC(C)C[C@H](NC(=O)[C@H](Cc1ccccc1)NC(=O)CN)C(=O)N[C@@H](CO)C(=O)N[C@@H](CCCCN)C(=O)N[C@@H](CO)C(=O)N[C@@H](CC(C)C)C(=O)N[C@H](C(=O)N[C@@H](Cc1ccccc1)C(=O)N[C@@H](Cc1c[nH]c2ccccc12)C(=O)N[C@@H](CCC(N)=O)C(=O)N[C@@H](CCC(=O)O)C(=O)N[C@@H](CCC(=O)O)C(=O)N[C@@H](CC[S+](C)[O-])C(=O)N[C@@H](CCC(=O)O)C(=O)N[C@@H](CC(C)C)C(=O)N[C@@H](Cc1ccc(O)cc1)C(=O)N[C@@H](CCCNC(=N)N)C(=O)N[C@@H](CCC(N)=O)C(=O)N[C@@H](CCCCN)C(=O)N[C@H](C(=O)O)C(C)C)C(C)C (some centres unmarked) [G-KV21] (HELM PEPTIDE1{G.F.L.S.K.S.L.V.F.W.Q.E.E.[CS(=O)CC[C@H](N[*:1])C(=O)[*:2]].E.L.Y.R.Q.K.V}$$$$V2.0) | may
2 | CC(C)C[C@H](NC(=O)[C@H](Cc1ccccc1)NC(=O)CN)C(=O)N[C@@H](CO)C(=O)N[C@@H](CCCCN)C(=O)N[C@@H](CO)C(=O)N[C@@H](CC(C)C)C(=O)N[C@H](C(=O)N[C@@H](Cc1ccccc1)C(=O)N[C@H](C(=O)N[C@@H](CCCCN)C(=O)N1CCC[C@H]1C(=O)N[C@@H](CCC(=O)O)C(=O)N[C@@H](CO)C(=O)N[C@@H](CCC(=O)O)C(=O)N[C@@H](CCCNC(=N)N)C(=O)N[C@@H](CC[S+](C)[O-])C(=O)N1CCC[C@H]1C(=O)N[C@@H](CS)C(=O)N[C@H](C(=O)N[C@@H](CCC(=O)O)C(=O)O)[C@@H](C)O)[C@@H](C)O)C(C)C (some centres unmarked) [G-TE21, reference compound] | may and may not
